Experimental data taken from publication doi:10.1101/2021.12.17.473173.
Results are given in words; binding and its absence hold for the method and conditions named. In cells and extracts the contact can be indirect. Here binding means that the protein was enriched with, or labelled near, the bait; the list need not be complete.

Chains of the proteins cited; added tags and fusions are not shown.
UniProt Q9ULT8: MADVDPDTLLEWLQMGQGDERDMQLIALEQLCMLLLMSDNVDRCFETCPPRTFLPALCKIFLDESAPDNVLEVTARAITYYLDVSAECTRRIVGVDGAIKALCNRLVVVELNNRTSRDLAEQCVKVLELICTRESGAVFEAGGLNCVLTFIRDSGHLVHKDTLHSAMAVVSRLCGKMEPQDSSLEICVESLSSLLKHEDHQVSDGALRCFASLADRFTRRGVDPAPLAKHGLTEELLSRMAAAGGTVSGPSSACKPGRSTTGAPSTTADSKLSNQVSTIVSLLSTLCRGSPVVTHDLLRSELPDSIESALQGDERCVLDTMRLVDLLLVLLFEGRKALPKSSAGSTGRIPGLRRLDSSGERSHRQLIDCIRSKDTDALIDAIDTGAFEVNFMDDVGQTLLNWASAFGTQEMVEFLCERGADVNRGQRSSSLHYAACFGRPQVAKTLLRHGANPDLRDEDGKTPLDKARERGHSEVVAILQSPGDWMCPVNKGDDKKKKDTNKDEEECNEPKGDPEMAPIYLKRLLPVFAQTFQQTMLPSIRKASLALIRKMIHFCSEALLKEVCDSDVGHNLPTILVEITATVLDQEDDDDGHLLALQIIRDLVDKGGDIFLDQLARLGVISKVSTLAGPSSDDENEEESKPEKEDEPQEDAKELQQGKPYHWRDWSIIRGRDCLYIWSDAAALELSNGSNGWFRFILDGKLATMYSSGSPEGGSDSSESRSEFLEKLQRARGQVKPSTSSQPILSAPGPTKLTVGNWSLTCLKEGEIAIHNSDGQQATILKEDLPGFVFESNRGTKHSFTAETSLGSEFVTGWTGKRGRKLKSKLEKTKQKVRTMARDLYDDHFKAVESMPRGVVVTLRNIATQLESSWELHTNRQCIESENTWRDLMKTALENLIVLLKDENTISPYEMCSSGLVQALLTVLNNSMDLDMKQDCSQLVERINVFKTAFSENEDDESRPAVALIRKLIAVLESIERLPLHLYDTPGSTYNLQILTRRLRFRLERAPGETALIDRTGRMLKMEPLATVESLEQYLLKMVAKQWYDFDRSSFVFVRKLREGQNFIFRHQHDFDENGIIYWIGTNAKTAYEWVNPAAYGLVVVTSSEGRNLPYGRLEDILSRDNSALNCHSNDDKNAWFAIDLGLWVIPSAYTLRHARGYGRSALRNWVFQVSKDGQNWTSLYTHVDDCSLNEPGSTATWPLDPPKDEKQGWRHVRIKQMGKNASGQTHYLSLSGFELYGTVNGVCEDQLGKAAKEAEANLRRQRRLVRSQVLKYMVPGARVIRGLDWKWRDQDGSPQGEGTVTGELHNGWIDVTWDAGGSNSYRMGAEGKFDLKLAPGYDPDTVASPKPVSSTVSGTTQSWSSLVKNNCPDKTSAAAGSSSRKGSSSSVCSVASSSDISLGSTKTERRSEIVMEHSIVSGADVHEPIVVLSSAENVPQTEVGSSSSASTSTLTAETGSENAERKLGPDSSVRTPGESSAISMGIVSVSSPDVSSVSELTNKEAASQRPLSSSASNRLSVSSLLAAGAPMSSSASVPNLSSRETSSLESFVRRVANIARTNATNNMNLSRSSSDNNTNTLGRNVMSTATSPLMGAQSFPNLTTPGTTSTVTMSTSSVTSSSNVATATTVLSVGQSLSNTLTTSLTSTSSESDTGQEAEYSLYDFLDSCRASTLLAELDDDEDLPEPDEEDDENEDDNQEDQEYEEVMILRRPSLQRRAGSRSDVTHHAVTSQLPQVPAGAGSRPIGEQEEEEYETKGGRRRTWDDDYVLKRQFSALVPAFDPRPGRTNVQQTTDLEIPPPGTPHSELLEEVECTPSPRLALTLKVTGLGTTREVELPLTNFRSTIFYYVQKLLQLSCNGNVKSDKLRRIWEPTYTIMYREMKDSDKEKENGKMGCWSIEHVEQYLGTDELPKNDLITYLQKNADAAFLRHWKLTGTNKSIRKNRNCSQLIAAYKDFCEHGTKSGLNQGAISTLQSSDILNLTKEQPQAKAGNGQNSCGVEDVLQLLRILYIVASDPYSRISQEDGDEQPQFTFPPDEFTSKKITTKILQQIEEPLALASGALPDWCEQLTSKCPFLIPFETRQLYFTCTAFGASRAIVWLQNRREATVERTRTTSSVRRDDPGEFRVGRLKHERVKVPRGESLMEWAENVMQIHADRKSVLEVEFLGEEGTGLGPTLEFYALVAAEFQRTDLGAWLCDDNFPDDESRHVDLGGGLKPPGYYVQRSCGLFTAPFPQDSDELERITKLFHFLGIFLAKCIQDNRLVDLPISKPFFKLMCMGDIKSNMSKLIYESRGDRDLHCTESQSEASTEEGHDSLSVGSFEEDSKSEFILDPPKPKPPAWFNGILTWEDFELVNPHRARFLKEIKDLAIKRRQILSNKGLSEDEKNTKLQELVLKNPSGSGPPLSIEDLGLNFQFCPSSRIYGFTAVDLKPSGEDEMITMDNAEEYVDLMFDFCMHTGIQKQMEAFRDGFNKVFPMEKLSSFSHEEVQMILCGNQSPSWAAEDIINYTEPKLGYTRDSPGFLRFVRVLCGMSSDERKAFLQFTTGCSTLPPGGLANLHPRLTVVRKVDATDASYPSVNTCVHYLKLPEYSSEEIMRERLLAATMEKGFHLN
UniProt O43684: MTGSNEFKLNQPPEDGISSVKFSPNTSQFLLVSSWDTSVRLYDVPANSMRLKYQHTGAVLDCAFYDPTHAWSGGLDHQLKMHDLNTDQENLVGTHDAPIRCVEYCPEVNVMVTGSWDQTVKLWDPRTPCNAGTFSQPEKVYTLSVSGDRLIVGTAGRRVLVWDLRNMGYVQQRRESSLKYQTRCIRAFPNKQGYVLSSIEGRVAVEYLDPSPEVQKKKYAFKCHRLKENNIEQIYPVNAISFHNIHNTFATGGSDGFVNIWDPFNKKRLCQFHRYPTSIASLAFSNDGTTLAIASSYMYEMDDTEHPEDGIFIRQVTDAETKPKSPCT

Target: HECTD1 (endogenous) (human (endogenous in HEK293T)) (UniProt Q9ULT8)
Assay: affinity purification with mass spectrometry

binding: binds
Substance: BUB3 (endogenous) (from UniProt O43684 1-328)
